These results are taken from patent publication US20200040082A1.

Results are given in words; binding and its absence hold for the method and conditions named. For part of these data: A result given as binding can be weak or reduced; the word gives no strength.

The target in experiment [1] is cynomolgus monkey TIGIT (cynomolgus monkey). Kind of experiment: flow cytometry on 293-cyno TIGIT cells, 100 nM antibody.
The target is the same in experiment [2]. The experiment in a line: flow cytometry on cynomolgus T cells, 20 ug/mL antibody. Background: A flow cytometer gives signals particle by particle.
The target is the same in experiment [3]. Kind of experiment: flow cytometry on cynomolgus T cells.
Experiment [4] has the same target. The experiment in a line: flow cytometry on 293-cyno TIGIT cells.

B1: Clone 27 (antibody, V domains shown)
VH: QVQLVQSGAEVKKPGASVKVSCKASGYTFTSYAISWVRQAPGQGLEWMGWISAYNGNTNYAQKLQGRVTMTTDTSTSTAYMELRSLRSDDTAVYYCARDLSSFWSGDVLGAFDIWGQGTMVTVSS
VL: EIVMTQSPATLSVSPGERATLSCRASQSVSSNLAWYQQKPGQAPRLLIYGASTRATGIPARFSGSGSGTEFTLTISSLQSEDFAVYYCQQHANHITFGGGTKVEIK
Regarding B1, the binding result in experiment [1] and in experiment [2] was “binds” throughout.

B2: Clone 18 (antibody, V domains shown)
VH: QVQLVQSGAEVKKPGASVKVSCKASGYTFTSYYMSWVRQAPGQGLEWMGIINPSGGSTSYAQKFQGRVTMTRDTSTSTVYMELSSLRSEDTAVYYCARVRYGYADGMDVWGQGTTVTVSS
VL: DIQMTQSPSSLSASVGDRVTITCRASQSISSYLNWYQQKPGKAPKLLIYGASSLQSGVPSRFSGSGSGTDFTLTISSLQPEDFATYYCQQVYHLPFTFGGGTKVEIK
For B2, the figures for the binding entry in experiment [3] and in experiment [4] were “no binding (tested: 20 ug/mL)” and “no binding (tested: 100 nM)”, respectively.

B3: Clone 22 (antibody, V domains shown)
VH: QVQLQESGPGLVKPSETLSLTCAVSGYSISSGYYWAWIRQPPGKGLEWIGSIYHSGSTYYNPSLKSRVTISVDTSKNQFSLKLSSVTAADTAVYYCARQGYYYGSSGSVDFDLWGRGTLVTVSS
VL: DIQMTQSPSSVSASVGDRVTITCRASQGISSWLAWYQQKPGKAPKLLIYAASNLQSGVPSRFSGSGSGTDFTLTISSLQPEDFATYYCQQANSLPPWTFGGGTKVEIK
Take B3: the binding result in experiment [1] and in experiment [2] was “binds” each time.
